No constants are given. Whether binding was seen depends on the method and setting. Binding seen in cells or lysates may run through a third protein. Some binding calls cover weakened binding; strength is not graded here.
Molecular target: Forkhead box O1 (mouse (endogenous in HEI-OC1)) (UniProt Q9R1E0)
Experiment: co-IP; HEI-OC1 cells treated with 50 µg/ml tunicamycin for 24 h, lysed in RIPA buffer with protease inhibitor; lysate incubated overnight at 4 °C with first antibody, Dynabeads Protein G 90 min, 3 washes, Western blot; precipitating antibody not named

Chains of the proteins cited; added tags and fusions are not shown.
UniProt Q9R1E0: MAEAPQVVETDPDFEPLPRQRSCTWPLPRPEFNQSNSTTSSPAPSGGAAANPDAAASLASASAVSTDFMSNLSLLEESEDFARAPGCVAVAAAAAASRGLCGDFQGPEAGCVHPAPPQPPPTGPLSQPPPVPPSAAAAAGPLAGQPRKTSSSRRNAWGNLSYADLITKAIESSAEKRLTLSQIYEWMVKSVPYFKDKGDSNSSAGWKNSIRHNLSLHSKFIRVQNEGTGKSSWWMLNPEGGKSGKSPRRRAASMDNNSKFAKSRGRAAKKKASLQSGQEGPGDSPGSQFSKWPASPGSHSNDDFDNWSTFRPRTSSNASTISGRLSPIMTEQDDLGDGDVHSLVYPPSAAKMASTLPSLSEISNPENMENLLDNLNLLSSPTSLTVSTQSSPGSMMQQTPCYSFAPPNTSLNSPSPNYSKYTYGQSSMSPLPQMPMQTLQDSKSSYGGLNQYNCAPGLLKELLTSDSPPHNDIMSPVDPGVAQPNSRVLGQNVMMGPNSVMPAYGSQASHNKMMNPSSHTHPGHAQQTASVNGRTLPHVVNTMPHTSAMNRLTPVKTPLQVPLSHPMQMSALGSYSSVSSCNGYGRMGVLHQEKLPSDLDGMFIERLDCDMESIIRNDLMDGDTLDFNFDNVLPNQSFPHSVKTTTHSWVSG

Row | binding | Binder
1 | binds | X-box-binding protein 1 unspliced (protein, UniProt O35426-1 1-267) MVVVAAAPSAATAAPKVLLLSGQPASGGRALPLMVPGPRAAGSEASGTPQARKRQRLTHLSPEEKALRRKLKNRVAAQTARDRKKARMSELEQQVVDLEEENHKLQLENQLLREKTHGLVVENQELRTRLGMDTLDPDEVPEVEAKGSGVRLVAGSAESAALRLCAPLQQVQAQLSPPQNIFPWTLTLLPLQILSLISFWAFWTSWTLSCFSNVLPQSLLVWRNSQRSTQKDLVPYQPPFLCQWGPHQPSWKPLMNSFVLTMYTPSL
2 | binds | X-box-binding protein 1 spliced (protein, UniProt O35426-2 1-371) MVVVAAAPSAATAAPKVLLLSGQPASGGRALPLMVPGPRAAGSEASGTPQARKRQRLTHLSPEEKALRRKLKNRVAAQTARDRKKARMSELEQQVVDLEEENHKLQLENQLLREKTHGLVVENQELRTRLGMDTLDPDEVPEVEAKGSGVRLVAGSAESAAGAGPVVTSPEHLPMDSDTVASSDSESDILLGILDKLDPVMFFKCPSPESASLEELPEVYPEGPSSLPASLSLSVGTSSAKLEAINELIRFDHVYTKPLVLEIPSETESQTNVVVKIEEAPLSSSEEDHPEFIVSVKKEPLEDDFIPELGISNLLSSSHCLRPPSCLLDAHSDCGYEGSPSPFSDMSSPLGTDHSWEDTFANELFPQLISV

From article PMC5493624
